Data reported in publication PMC5500841.
These are yes or no findings as the source states them, for the method shown. Binding seen in cells or lysates may run through a third protein.

Protein sequences, listed by entry. Tags and fused reporters are not part of them. Lines headed by an entry give the natural chain unless they say otherwise; changes in a name come on top. Chains listed by the source or under a name are the forms on record and can include a tag or linker.
Kit(K642E) of GIST882 cells (human (endogenous in GIST882)) (P10721, form named): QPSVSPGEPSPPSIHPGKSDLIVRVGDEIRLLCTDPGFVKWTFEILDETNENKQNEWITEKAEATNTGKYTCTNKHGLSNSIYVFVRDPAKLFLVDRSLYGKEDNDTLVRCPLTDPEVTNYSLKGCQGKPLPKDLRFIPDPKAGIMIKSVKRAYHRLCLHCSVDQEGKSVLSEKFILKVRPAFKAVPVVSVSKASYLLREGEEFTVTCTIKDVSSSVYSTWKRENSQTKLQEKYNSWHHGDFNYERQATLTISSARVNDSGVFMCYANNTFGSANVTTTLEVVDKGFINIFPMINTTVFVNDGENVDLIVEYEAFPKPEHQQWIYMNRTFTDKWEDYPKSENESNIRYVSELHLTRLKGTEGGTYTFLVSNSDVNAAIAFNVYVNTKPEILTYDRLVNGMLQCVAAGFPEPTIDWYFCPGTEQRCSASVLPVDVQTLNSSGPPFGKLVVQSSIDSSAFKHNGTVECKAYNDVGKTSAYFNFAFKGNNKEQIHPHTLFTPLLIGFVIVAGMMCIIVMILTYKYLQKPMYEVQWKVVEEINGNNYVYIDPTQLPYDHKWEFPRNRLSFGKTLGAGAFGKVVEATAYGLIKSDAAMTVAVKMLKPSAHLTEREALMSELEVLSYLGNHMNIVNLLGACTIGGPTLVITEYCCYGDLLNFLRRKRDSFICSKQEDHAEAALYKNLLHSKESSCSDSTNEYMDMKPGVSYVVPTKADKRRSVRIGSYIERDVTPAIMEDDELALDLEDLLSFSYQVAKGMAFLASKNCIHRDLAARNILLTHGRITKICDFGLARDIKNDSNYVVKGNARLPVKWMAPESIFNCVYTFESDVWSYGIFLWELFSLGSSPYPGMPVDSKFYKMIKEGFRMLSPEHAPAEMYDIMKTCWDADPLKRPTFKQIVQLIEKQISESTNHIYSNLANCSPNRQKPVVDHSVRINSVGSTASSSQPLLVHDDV
UniProt P07947: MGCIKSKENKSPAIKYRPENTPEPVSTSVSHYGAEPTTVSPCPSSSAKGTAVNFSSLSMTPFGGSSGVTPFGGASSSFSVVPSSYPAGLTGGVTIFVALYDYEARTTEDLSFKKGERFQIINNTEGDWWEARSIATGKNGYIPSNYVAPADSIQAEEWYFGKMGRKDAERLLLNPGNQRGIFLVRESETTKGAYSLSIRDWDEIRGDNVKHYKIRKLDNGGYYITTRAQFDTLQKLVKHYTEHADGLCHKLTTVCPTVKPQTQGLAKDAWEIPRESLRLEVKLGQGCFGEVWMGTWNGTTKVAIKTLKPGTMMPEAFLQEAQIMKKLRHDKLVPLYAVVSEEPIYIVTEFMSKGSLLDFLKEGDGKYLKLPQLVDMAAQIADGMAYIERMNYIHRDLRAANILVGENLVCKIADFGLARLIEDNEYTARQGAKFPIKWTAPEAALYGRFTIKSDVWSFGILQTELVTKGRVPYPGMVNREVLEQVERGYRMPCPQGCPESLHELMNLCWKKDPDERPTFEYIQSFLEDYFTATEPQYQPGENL

Molecular target: Kit(K642E) of GIST882 cells (human (endogenous in GIST882)) (UniProt P10721)
Assay: co-IP; immunoprecipitates from GIST882 cells treated or not with 200 nM imatinib for 4 h, immunoblotted; NP-40 lysates, protein G pre-coated with antibody, 4 °C, 5 h

binding: no binding
Substance: Yes (from UniProt P07947 1-543) (enzyme)
